Assay results reported in US8969400B2, “Pharmaceutical compositions of 5-hydroxytryptophan and serotonin-enhancing compound” (Duke University, priority 2007, dated 2015).
At least one compound was matched to its structure with a doubt left.

Legend:
Type in all cases: in vivo, mouse
[1] = test system: NMRI mice; test: Locomotor activity in NMRI mice; conditions: recorded for 6 min, citalopram 5, 10, 20 mg/kg, 5-HTP 12.5 mg/kg
[2] = test system: extracellular 5-HT; test: Microdialysis of extracellular 5-HT in frontal cortex, NMRI mice; conditions: citalopram 20 mg/kg, 5-HTP 12.5 mg/kg
Protocol: Male NMRI and C57Bl/6j mice (Taconic Europe, St. Laven, DK) weighing 25-35 g were housed and habituated for at least 7 days before the experiments in Macrolon III cages (20×40×18 cm) with eight mice per cage. Chow and water were available ad libitum, with lights on at 6 a.m. and off at 6 p.m. All behavioral testing was conducted during the light phase.
Microdialysis were performed in freely moving mice as previously described in Jacobsen J P et al.; Neuroscience 2005; 132:1055-1072. The flowrate was 1 ul/min and 20 min samples were collected. Four baseline samples were collected whereafter saline, 5-HTP (12.5 mg/kg), citalopram (20 mg/kg) or citalopram+5-HTP were injected and six additional samples where collected. Samples were collected on ice, immediatedly frozen on dry ice and stored at −80° C. until analysis by HPLC-EC.
5-HT in tissue and microdialysis samples were analysed using HPLC-EC as previously described in Weikop P et al.; Eur Neuropsychopharmacol 2007; 17:658-671.
Tail suspension data were analyzed either using one-way ANOVA (single-drug treatments) or two-way ANOVA (paroxetine/5-HTP and citalopram/5-HTP) with Dunnets post-hoc test. Locomotor activity data were analyzed using two-way ANOVA with Dunnets post-hoc test. Tissue 5-HT data were analyzed using students t-test. Microdialysis 5-HT data were analyzed using two-way repeated measures ANOVA with Dunnets post-hoc test.

[3] = test system: extracellular 5-HT; test: Microdialysis of extracellular 5-HT in frontal cortex, C57 mice; conditions: citalopram injection
[4] = test system: NMRI mice; test: Tail suspension test in NMRI mice; conditions: single drug i.p. 30 min prior to test, 6 min test
Description: Drug candidates can be screened for antidepressant-like activity by using animal models. In the tail suspension test the mouse is suspended by its tail. The mouse will initially move and struggle but will with time become increasingly immobile. Pretreatment with a clinically effective antidepressant decreases the time spent immobile. This includes selective serotonin re-uptake inhibitors (SSRIs) and drugs inhibiting the noradrenaline reuptake mechanism, as well as some putative antidepressants with non-monoamine pharmacology. […] In animal models of depression, including the tail suspension test, mouse strains differ considerably in their responsiveness to antidepressants. This may parallel the clinical situation where a considerable subset of patients is refractory to pharmacotherapy. […] The duration of immobility was measured using an automated system (Med Associates, USA) during the 6 min testing period. Tail suspension data were analyzed either using one-way ANOVA (single-drug treatments) or two-way ANOVA (paroxetine/5-HTP and citalopram/5-HTP) with Dunnets post-hoc test. Locomotor activity data were analyzed using two-way ANOVA with Dunnets post-hoc test. Tissue 5-HT data were analyzed using students t-test. Microdialysis 5-HT data were analyzed using two-way repeated measures ANOVA with Dunnets post-hoc test.

SMILES: CN(C)CCCC1(c2ccc(F)cc2)OCc2cc(C#N)ccc21 (stereo not shown) [citalopram]
- locomotor activity [1]: moderately but significantly increased
- increase in extracellular 5-HT in the frontal cortex [2]: only a modest increase
- increase in extracellular 5-HT in the frontal cortex [3]: robust increase
- immobility in tail suspension test [4]: without effect
